Assay results as given in article PMC9601220.
No constants are given. Whether binding was seen depends on the method and setting. In cells and extracts the contact can be indirect. Here binding means that the protein was enriched with, or labelled near, the bait; the list need not be complete. Values belong to the binder of their own block, whether it stands above or below them.

Target: Nup434::TurboID-HA (P. berghei)
Assay: proximity labelling; TurboID fused to the C-terminus of the bait at its endogenous locus in P. berghei; schizonts after overnight culture, no added biotin (mouse serum and RPMI levels); lysis in 8M urea with 1 mM DTT, biotinylated proteins on magnetic streptavidin beads, LC-MS/MS; 2 biological replicates, proteins of the wild-type control excluded

binding: binds
B1: Nup138 (protein, UniProt A0A509AFD3 1-1237)
chain: MNNNGGNANNPNMWGMPNNNLGNNSFFGTNMNSQNGLNENNNNSLNNQTNMTGNNMFFGASVNNQNNNIFENNMNSQNNVGKSDNSIFGTPSNDLNKSNNTSLFGSLSSNTSVNNNTTNAFNANLFNAAKKDVYPGFTRSLLGNSPNNSSNIFKQSTLGSSIALGSQLNEDRGSESGGLFSKEQLEAAKQIFANSSSGNLSSFNNKTNNNKLTFSGGFSSSSSAFSKNNINPFQSMAMQATNQNDKSSLMNNNMNKLFFGDTNNNNINGGGKINPFGMPTVNNLTSPNKLNEIGPGGFSQAIKSFNPNTNSLFSSQTNTGSTASTSFNNNDSSQKSLFSNFGGGFNSFAKTNTNDIFKKNTTENATNNNNTNTSFSFLPSFNGSKNNDNSFSLNSFNATNNEKSSGSLFSFNNNNTNTASPDFSLFSNNNINKTTTPDNSINSSINKDAENKAIEKSNQNIGESKDSGITSVVSESFKANDASGTDKSIFSKETEAEKDKEKAGDKNEQNDNDKEKDETKETNVTLEIKKDENDSTKNHDEKLIDHKSESKENQNNENEKDDKNDDKKYETSDNAKDNKDGTNNDKMSLFGKSLTFNSSFFKTSTANLTDKKSNLESSSSLNNDTENKKEKTGFFFGNDDKNENTNTSTESKWDFSKFGNNNLFNKEKESFSFSFKETSTTDKKNESTNLKDNKKEEDTKPSVSTESKDKNKEATATPKKSIFNFGIKSNFLNQSSKDSKDDNINESNKEKDNEKPTKGAETDETDADGTKDHNTTGVYSKLDSNDVGDKKKIWKLSFTKKKDQTSTDAQKELKENELKNNNLLNKGPSLQPSDITLGKGSLFGSFTKDNEKKNEDTKNTKSDHFSNINSFGKNNTSISFNQSSLFGKPDEKGNTLFSSSNNTFQFFNSSQNDKKKTEFQTKTQNIPEIKNNQNADDEDVNNVSNLINFISLEDRKKNVYINNNAQCDDENHEKTYISSNLKSNNNNETSHRSQTANFQLKETKGTLRMDNNDDYADFNDIDFINGQQNLEINMEHQRQLENDRKSVENNIKTNECFLKKNLDQEMAVDVINNLSSFVKNKINFMNYCSNEILDIYNKVSHYEKMYALISEDQIKIEKKQESLEKRLRLIQSEQCDMLSLLNELDNENSLTFLKVLNQKNLNKDDSINNKNLYLDIDKFEKLADKIENLEELIDSIHNTSKHDIVNDLVNKCYTNEINCEQIEKQLNGYSHELRNMK

binding: binds
B2: Nup176 (protein, UniProt A0A509AYN3 1-1469)
chain: MNDFSGEYDFMQRIHKIEGHNNNDYGINKDNLKGGDIIKGKDDVLLEKEKYEKDFYLKSKYDKYNNTLNGFEKDDKFSYLKRLKKENELKKRESSSKKSNINELVKINEIVYYIHANKKNVYEYITNQTDLENNYYQIEERPNNLSRNIIKNNEEYIYLNDNAYYKLKINRDEKDGREEKEDEHGIESMNLKYSLDGNKSTIIENIIESDNILIHILHVLLSFKNCVKGIFLFLSKIFHFNFLDYNNIKNYSLTNYFDQNVKEYMKYLKKHEDSRIINHDFLLRRKYITPHFIYNSVDCNYNTNDNGIVILSSILPFIHSFDYDYKLKETRNREQDLEYVLNGEKKKYFGKTGIFEYLKKIKNMFINKLNRSIGNDNNNNNENGDGMGNDEGAWGNDNNEYSEFLKKYENCINEKGELIQDILFAGKAQMIFINFKQLENNFNNIIGNIEIKNEKIHVSNLILGYEKREHIKYTDILISNILKNIKKKYPDIAINDENPKQFIYDDNEFSDKLMGENNNTYGGNHINNMNSNDESNISLTEHIDNNIYKRELYKLSDLKEYVYSAPSHLMRDQKNNCEYVTCVSFDNNSNNCNLINNFVLGYNTGKIEYIYGKIVYNNISHCDLLIDYYSNKNKKFSYELCKRIYLNGSVIKIGFAPNVFFCLILTSKTLYICNFFYFSIYEIPNVCYNSRFVNFLWINNNSYCIFNDNGYIYLYEKNSKSDGLNSFSLVKCFFIDQNIYYNSICEYHLYSHSIYLYTGEIEKRRQKKNVTHFFKKKKIRMHKRYSDYFYKYDCNFIIIDLNSYMGNNCENNKSSDMLVRGLLKDNVTDVEGNMKQIKILEMLIENGANLEEEDANFENMLNINIKDFNNYISTIKDANTKLYMNDSGDERKDMIDYNKENDKFSIKNIFVNYIQDVKRHLYNLKNENIVNVLLPRYYSSGDDYSHKNFLNVRFFTIEKLDNKHLIALDTETDYVYIYKIRKNVHLDYNSIEALKNNPYQTNRNPLHMLYSTYMKKEPILKDEWKIYNEYIYVNTKKLKKYIKYNLLYIIKNHKKIFFPLHVYVINTKYNENEYLLFIKWATIKNSFVYSSYSSLNKVSKMNDYFNNEDEKILKVLENPKNIFLYNINDENRNVGGRMGYPYMPNNDILRSLSGKNKYYDNDYMSDNGNNYISYNRSGNKPNEYRENFSNKMKNFTNRISHEDFMSKTPIKNPERNFFTSGVGNNMGINETNPILYKRRGRFTENDIYNEYYMNQNNKDGNYSNYLNENKKLNESDKKWSYLKKINIFSKKDEDLINDNYGNHRSNYNNMDPKNLQYKNSHMYNLKNDNIFNEMKNSNLYSSPNDIKFNRLHDNQDGPKIPNGDNNMNEYYYMNNTNKYKTSNINNNYDSYVLKNDLYNFRNNININENNNNANNNYSYGNTDFYRAPNDTYYRGNQEFNANVYNAGYGSDSNHIHHESPYRSRFRNYS
